This assay addresses T1, HA2-N70Q-hTRESK (human) (UniProt Q7Z418).
T1 sequence: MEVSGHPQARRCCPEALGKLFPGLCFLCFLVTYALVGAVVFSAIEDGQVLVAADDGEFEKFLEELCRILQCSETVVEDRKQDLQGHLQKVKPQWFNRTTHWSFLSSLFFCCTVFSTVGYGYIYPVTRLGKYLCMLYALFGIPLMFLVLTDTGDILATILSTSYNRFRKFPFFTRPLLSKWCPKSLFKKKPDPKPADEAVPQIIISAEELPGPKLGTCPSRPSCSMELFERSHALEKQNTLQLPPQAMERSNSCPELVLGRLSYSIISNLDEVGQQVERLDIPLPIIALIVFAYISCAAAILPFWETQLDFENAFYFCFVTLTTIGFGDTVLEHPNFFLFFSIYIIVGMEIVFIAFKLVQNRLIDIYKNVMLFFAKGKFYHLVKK
The experiment in a line: co-IP; anti-HA agarose (Pierce HA Tag IP/Co-IP Kit) on the 1% NP-40 solubilized crude membrane fraction of Xenopus oocytes coexpressing both proteins; overnight at 4 °C; washed with Tris 25 mM pH 7.2, NaCl 150 mM, Tween-20 0.05%; anti-His immunoblot. (In general: In western blotting, separated proteins are transferred to a membrane and probed.)

Our source for the binding values is publication PMC11355008.

Results are given in words; binding and its absence hold for the method and conditions named. Binding seen in cells or lysates may run through a third protein. Some entries that bind do so weakly or less than the wild type. Tags and fused reporters may be left off the sequences shown.

B1: His8-hNDFIP1 (protein, UniProt Q9BT67-1 1-221)
chain: MALALAALAAVEPACGSRYQQLQNEEESGEPEQAAGDAPPPYSSISAESAAYFDYKDESGFPKPPSYNVATTLPSYDEAERTKAEATIPLVPGRDEDFVGRDDFDDADQLRIGNDGIFMLTFFMAFLFNWIGFFLSFCLTTSAAGRYGAISGFGLSLIKWILIVRFSTYFPGYFDGQYWLWWVFLVLGFLLFLRGFINYAKVRKMPETFSNLPRTRVLFIY
B1: the binding entry is listed as “binds”.
